Several values for one entry are separate records, joined by “and”; a condition that tells them apart may be missing. Equal values may be shown once. The list shows a part of the results. These are further read-outs of the screen, such as a control signal, another cell line or another target. No call is given for them. For some of these results: The list favours compounds with an active or inconclusive main result.
Tests used:
[1] = PubChem AID 1586; settings: yeast two-hybrid polyglutamine protein interaction, reporter readout; measured here: averaged growth delta OD
[2] = enhancers of SMN2 over SMN1 splicing, cell-based, SMN2/SMN1 luciferase reporters (AID 1598); settings: SMN2 vs SMN1 luciferase splicing reporter cells, at 10 µM; SMN1 luciferase ratio: measured here: SMN1 luciferase reporter average; SMN2 luciferase ratio: measured here: SMN2 luciferase reporter average, stronger effect = higher value
[3] = protection against mutant huntingtin cytotoxicity, PC12 cells, LDH release (AID 1610); settings: PC12 mutant huntingtin toxicity, final LDH at 4 uM, stronger effect = lower value

Row | Compound | signal change (36 h minus 0 h) [1] | SMN1 luciferase ratio [2] | SMN2 luciferase ratio [2] | normalised LDH release [3]
1 | CCN(CC)C(=O)N1CCN(C)CC1 | 0.131 | 0.87 | 0.89 | 0.832
2 | CCN(CC)CCOc1ccc2c(c1)C(=O)c1cc(OCCN(CC)CC)ccc1-2 | 0.179 | 0.94 | 0.94 | 0.915
3 | CCn1nc(C(=O)O)c(=O)c2cc3c(cc21)OCO3 | 0.0987 | 0.95 | 0.86 | 0.673
4 | CN1C2CC[C@@H]1CC(OC(=O)[C@H](CO)c1ccccc1)C2 (some centres not stated) | 0.134 | 0.9 | 0.97 | 1.05
5 | NC[C@@H]1O[C@H](O[C@H]2[C@@H](O)[C@H](O[C@@H]3[C@@H](O)[C@H](N)C[C@H](N)[C@H]3O[C@@H]3O[C@H](CO)[C@@H](O)C[C@H]3N)O[C@@H]2CO)[C@H](N)[C@@H](O)[C@@H]1O[C@H]1O[C@H](CO)[C@@H](O)[C@H](O)[C@@H]1O | 0.243 | 0.89 | 1.02 | 0.903
6 | O=C1C(O)=C(O)C(=O)C(O)=C1O | 0.117 | 0.91 | 0.98 | 0.572
7 | C=C(CC)C(=O)c1ccc(OCC(=O)O)c(Cl)c1Cl | 0.0115 | 0.99 | 1.05 | 0.827
8 | CC(=O)[C@H]1CCC2C3CC=C4C[C@@H](O)CC[C@]4(C)C3CC[C@@]21C (some centres not stated) | 0.0316 | 0.92 | 0.94 | 0.823
9 | O=c1[nH]c(=O)n(C2C[C@@H](O)[C@@H](CO)O2)cc1F (some centres not stated) | 0.173 | 0.44 | 0.54 | 0.724
10 | Nc1ccc(S(=O)(=O)Nc2ccnn2-c2ccccc2)cc1 | 0.0911 | 0.95 | 1.12 | 0.896
11 | Cc1cc(NS(=O)(=O)c2ccc(N)cc2)no1 | 0.239 | 0.94 | 0.97 | 0.967
12 | CCCCCCOc1ccccc1C(N)=O | 0.112 | 1.01 | 0.94 | 0.892
13 | OC(c1cc(C(F)(F)F)nc2c(C(F)(F)F)cccc12)C1CCCCN1 (configuration not stated) | 0.18 | 0.8 | 0.81 | 1.06
14 | COc1cc(NC(C)CCCN)c2ncccc2c1 (configuration not stated) | 0.286 | 0.95 | 0.92 | 1.14
15 | CC(=O)NO | 0.508 | 0.97 | 1.07 | 0.75
16 | N[C@H](C(=O)O)[C@@H]1CC(Cl)=NO1 | 0.099 | 0.57 | 0.5 | 1.25
17 | COc1ccc2cc3[n+](cc2c1OC)CCc1cc2c(cc1-3)OCO2 | 0.0412 | 0.56 | 0.55 | 0.815
18 | CC(N)CCCC(C)(C)O (configuration not stated) | 0.314 | 0.86 | 0.86 | 0.929
19 | CC[C@]12CCCN3CCc4c(n(c5ccccc45)C(=O)C1)[C@@H]32 | 0.122 | 1.04 | 1.09 | 0.789
20 | CCN(CC)Cc1ccc(Nc2ccnc3cc(Cl)ccc23)cc1O | 0.0679 | 0.91 | 0.84 | 0.875

Record cards, as listed above. Order of values: signal change (36 h minus 0 h) [1] | SMN1 luciferase ratio [2] | SMN2 luciferase ratio [2] | normalised LDH release [3]
`CCCCCCOc1ccccc1C(N)=O` as listed: 0.112 | 1.01 | 0.94 | 0.892
`COc1cc(NC(C)CCCN)c2ncccc2c1` (configuration not stated) as listed: 0.286 | 0.95 | 0.92 | 1.14
`CC[C@]12CCCN3CCc4c(n(c5ccccc45)C(=O)C1)[C@@H]32` as listed: 0.122 | 1.04 | 1.09 | 0.789
`Cc1cc(NS(=O)(=O)c2ccc(N)cc2)no1` as listed: 0.239 | 0.94 | 0.97 | 0.967

(continued)

Row | Compound | signal change (36 h minus 0 h) [1] | SMN1 luciferase ratio [2] | SMN2 luciferase ratio [2] | normalised LDH release [3]
21 | C[C@@H]1CC2C3C[C@H](F)C4=CC(=O)C=C[C@]4(C)[C@@]3(F)[C@@H](O)C[C@]2(C)[C@@]1(O)C(=O)COC(=O)C(C)(C)C (some centres not stated) | 0.034 | 0.9 | 0.99 | 0.182
22 | O=C(COc1ccc(Cl)cc1)N1CCN(Cc2ccc3c(c2)OCO3)CC1 | 0.263 | 0.86 | 0.86 | 0.85
23 | Fc1ccc(C(c2ccc(F)cc2)N2CCN(C/C=C/c3ccccc3)CC2)cc1 | 0.174 | 0.76 | 0.84 | 0.666
24 | CCn1cc(C(=O)O)c(=O)c2ccc(C)nc21 | 0.175 | 0.82 | 0.96 | 0.944
25 | CC(Cc1ccc(O)c(O)c1)(NN)C(=O)O (configuration not stated) | 0.157 | 0.89 | 0.89 | 0.975
26 | CN(Cc1cc(Br)cc(Br)c1N)C1CCCCC1 | 0.113 | 0.88 | 0.98 | 0.756
27 | O=C(O)c1ccccc1O | 0.0406 | 0.99 | 1.09 | 0.734
28 | O=c1n(CCCN2CCN(c3cccc(Cl)c3)CC2)nc2ccccn12 | 0.0592 | 0.89 | 0.81 | 0.545
29 | OCCN(CCO)c1nc(N2CCCCC2)c2nc(N(CCO)CCO)nc(N3CCCCC3)c2n1 | 0.215 | 0.91 | 1.01 | 0.85
30 | CC(C)Cn1c(=O)n(C)c(=O)c2[nH]cnc21 | 0.383 | 0.94 | 0.94 | 0.88
31 | CC1Cc2ccccc2N1NC(=O)c1ccc(Cl)c(S(N)(=O)=O)c1 (configuration not stated) | 0.092 | 0.95 | 0.9 | 1.11
32 | COc1cccc(C(=O)c2ccccc2O)c1O | 0.0927 | 0.95 | 0.98 | 0.534
33 | CC(=O)Oc1ccc(C(c2ccc(OC(C)=O)cc2)c2ccccn2)cc1 | 0.0911 | 0.62 | 0.78 | 0.816
34 | CC(=O)OCC1=C(C(=O)O)N2C(=O)[C@@H](NC(=O)CSc3ccncc3)[C@H]2SC1 | 0.0848 | 0.85 | 0.81 | 0.987
35 | CSCCC(N)C(=O)NC(CC(C)C)C(=O)NC(Cc1ccccc1)C(=O)O (configuration not stated) | 0.101 | 0.87 | 0.94 | 0.676
36 | CC(=O)[C@H]1CCC2C3CCC4=CC(=O)CC[C@]4(C)C3CC[C@@]21C (some centres not stated) | 0.0717 | 0.89 | 0.85 | 0.278
37 | O=C(O)c1cc([N+](=O)[O-])ccc1NCCCc1ccccc1 | -0.0205 | 0.98 | 1.03 | 0.597
38 | CCCCC(CC)CN1CN(CC(CC)CCCC)CC(C)(N)C1 (configuration not stated) | 0.145 | 0.89 | 1.01 | 0.881
39 | O=C(O)c1ccccc1C(=O)Nc1ccc(S(=O)(=O)Nc2nccs2)cc1 | 0.282 | 0.9 | 0.97 | 0.985
40 | NC(N)=NC(N)=Nc1ccccc1 | 0.203 and 0.0964 | 0.86 and 0.92 | 0.9 and 0.89 | 0.843 and 0.891

Row | Compound | signal change (36 h minus 0 h) [1] | SMN1 luciferase ratio [2] | SMN2 luciferase ratio [2] | normalised LDH release [3]
41 | Nc1ncn([C@@H]2O[C@H](CO)[C@@H](O)[C@H]2O)c(=O)n1 | 0.197 | 0.72 | 0.92 | 0.367
42 | Cc1ccc(C(C)C)cc2c(C)ccc1-2 | 0.343 | 0.85 | 0.86 | 0.965
43 | O=c1[nH]cnc2[nH]ncc12 | 0.0917 | 0.88 | 0.96 | 0.8
44 | Cc1cc(Nc2ccccc2C(=O)O)ccc1Cl | 0.184 | 0.86 | 0.88 | 0.546
45 | CCC(C)C(N)C(=O)N1CCCC1C(=O)NC(C(=O)O)C(C)CC (configuration not stated) | 0.058 | 0.9 | 1.05 | 0.94
46 | COc1ccc2c(c1)c(CC(=O)O)c(C)n2C(=O)c1ccc(Cl)cc1 | 0.295 | 0.93 | 0.86 | 1.04
47 | CN1C(CC(=O)c2ccccc2)CCCC1CC(O)c1ccccc1 (configuration not stated) | 0.181 | 0.83 | 0.85 | 0.794
48 | CC[C@H]1OC(=O)[C@H](C)[C@@H](O[C@H]2C[C@@](C)(OC)[C@@H](O)[C@H](C)O2)[C@H](C)[C@@H](O[C@@H]2O[C@H](C)C[C@H](N(C)C)[C@H]2O)[C@](C)(O)C[C@@H](C)C(=O)[C@H](C)[C@@H](O)[C@]1(C)O | 0.211 and 0.0678 and 0.173 | 0.91 and 0.82 and 1.02 | 1.08 and 0.87 and 0.96 | 0.914 and 0.789 and 1.03
49 | CC[N+](C)(C)c1cccc(O)c1 | 0.135 | 0.94 | 0.91 | 0.97
50 | COc1cc(C)c2c(=O)cc(-c3ccccc3)oc2c1 | 0.0467 | 1.26 | 1.23 | 0.999
51 | CC12CCC3c4ccc(OCc5ccccc5)cc4CCC3C1C[C@@H](O)[C@@H]2O (some centres not stated) | 0.02 | 0.42 | 0.46 | 1.37
52 | O=C(O)c1cc(=O)c2ccccc2[nH]1 | 0.0668 | 0.86 | 0.85 | 1.31
53 | CN(C)CCCN1c2ccccc2Sc2ccc(Cl)cc21 | 0.0915 | 0.91 | 0.8 | 0.804
54 | CCCCCCCCCCCCCCCCCCOCC(O)CO (configuration not stated) | 0.407 | 0.88 | 0.96 | 0.826
55 | CC(COc1ccccc1)N(CCCl)Cc1ccccc1 (configuration not stated) | 0.11 | 1.06 | 1.03 | 0.974
56 | CC(=O)N[C@@H](CC(C)C)C(=O)O | 0.0868 | 0.99 | 0.85 | 0.885
57 | Cc1cc(=O)n(-c2ccccc2)n1C | 0.227 | 0.92 | 0.84 | 1.27
58 | Cn1nnnc1SCC1=C(C(=O)O)N2C(=O)C(NC(=O)C(O)c3ccccc3)C2SC1 (configuration not stated) | 0.083 | 0.88 | 0.92 | 0.909
